Results deposited as PubChem BioAssay AID1671195 (Yale University, 2021)
The deposit covers about 22,000 reagents; below is a random part of them. About 1,510 of all reagents (6.9%) were called active. 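Active includes knockdowns raising or lowering LDL uptake; positive z-scores mean more uptake, negative mean less.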 A number with no mark means an inactive call.

Screen: 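Knockdowns that increase or decrease uptake of fluorescent LDL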 (primary screen)
System: human Huh7 hepatoma cells
Reagents: siRNA pool against human genes, 18 nM
Time to read-out: about 2 to 2.5 days of knockdown, then 8 h LDL uptake
Treatment: DiI-labelled LDL at 30 µg/ml for 8 h, in lipoprotein-deficient serum medium
Measurement: 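Fluorescent LDL signal imaged in cells, scaled to the plate median, robust z-score for each replicate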
Scale: robust z-score: higher = more LDL uptake after knockdown
Active means: 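Active when two or more replicates show a robust z-score above 2 or below -2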

| gene | PubChem SID | robust z-score, replicate 1 | robust z-score, replicate 2 | robust z-score, replicate 3 |
| --- | --- | --- | --- | --- |
| LGALS1 (galectin 1) | SID442883857 | 2.4 (active) | 2.66 | 1.64 |
| MEIOC (meiosis specific with coiled-coil domain) | SID442898950 | -0.709 | -0.382 | -0.585 |
| THRB (thyroid hormone receptor beta) | SID442891624 | 0.718 | 0.186 | -0.114 |
| NRAP (nebulin related anchoring protein) | SID442890814 | 0.0512 | 0.919 | 0.127 |
| NYAP1 | SID442894719 | -0.413 | 0.263 | -0.131 |
| ZCCHC8 (zinc finger CCHC-type containing 8) | SID442892276 | -0.23 | 1.19 | -0.396 |
| LOC284379 | SID442888807 | 0.498 | 0.561 | 0.914 |
| DNAJC14 (DnaJ heat shock protein family (Hsp40) member C14) | SID442891754 | 0.808 | -0.0462 | -0.0175 |
| CNTN6 (contactin 6) | SID442893362 | 0.525 | -0.142 | -0.203 |
| LOC387654 (retired record) | SID442894087 | 0.16 | -0.132 | -0.103 |
| SMG9 (SMG9 nonsense mediated mRNA decay factor) | SID442885895 | 1.78 | 2.03 | 0.186 |
| RNF214 (ring finger protein 214) | SID442889666 | 0.494 | 0.548 | 0.536 |
| FBRS (fibrosin) | SID442884896 | 1.76 | 1.6 | 2.03 |
| PEX11A (peroxisomal biogenesis factor 11 alpha) | SID442891970 | 1.01 | 0.343 | -0.679 |
| MB21D2 (Mab-21 domain containing 2) | SID442891504 | 0.61 | 0.734 | -0.508 |
| CYTIP (cytohesin 1 interacting protein) | SID442896928 | 0.289 | -0.455 | -0.818 |
| MTM1 (myotubularin 1) | SID442883946 | 2.65 (active) | 2.28 | 1.46 |
| ZNF502 (zinc finger protein 502) | SID442894920 | -0.265 | -0.301 | 0.224 |
| ZBED8L (ZBED8 like) | SID442898523 | -0.321 | -0.864 | -0.34 |
| RSPH10B (radial spoke head 10 homolog B) | SID442902747 | -1.41 | -1.15 | -0.856 |
| OR1J2 (olfactory receptor family 1 subfamily J member 2) | SID442889679 | 2.69 | 0.353 | -1.47 |
| TAPBP (TAP binding protein) | SID442899882 | -0.671 | -0.751 | -0.624 |
| RCN1 (reticulocalbin 1) | SID442903793 | -1.49 | -1.37 | -1.32 |
| PARM1 (prostate androgen-regulated mucin-like protein 1) | SID442885575 | 1.44 | 2.52 | 0.423 |
| SEPTIN10 (septin 10) | SID442903395 | -1.56 | -1.17 | -1.14 |
| HNRNPA1P4 (heterogeneous nuclear ribonucleoprotein A1 pseudogene 4) | SID442892129 | 0.247 | 0.234 | 0.134 |
| LOC390906 (retired record) | SID442897835 | -0.496 | -0.314 | -0.48 |
| MAGEE1 (MAGE family member E1) | SID442895101 | -0.631 | -0.119 | 0.35 |
| MIIP (migration and invasion inhibitory protein) | SID442889880 | 0.356 | 0.625 | 0.502 |
| UIMC1 (ubiquitin interaction motif containing 1) | SID442883694 | 1.95 (active) | 2.89 | 2.5 |
| SCFD2 (sec1 family domain containing 2) | SID442889007 | 0.347 | 0.626 | 0.905 |
| PRKAG3 (protein kinase AMP-activated non-catalytic subunit gamma 3) | SID442892590 | 0.271 | 0.343 | -0.172 |
| CDC42EP3 (CDC42 effector protein 3) | SID442889204 | 1.35 | 0.924 | -0.486 |
| LOC392347 (retired record) | SID442904223 | -1.79 | -1.63 | -1.17 |
| LOC391764 (retired record) | SID442892530 | 0.173 | 0.161 | 0.133 |
| PBOV1 (prostate and breast cancer overexpressed 1) | SID442889575 | 0.537 | 0.828 | 0.249 |
| PRAMEF17 (PRAME family member 17) | SID442890832 | 0.403 | 0.45 | 0.24 |
| ASB5 (ankyrin repeat and SOCS box containing 5) | SID442891330 | 0.431 | -0.476 | 0.943 |
| RGPD1 (RANBP2 like and GRIP domain containing 1) | SID442902955 | -0.911 | -1.28 | -1.36 |
| TMEM37 (transmembrane protein 37) | SID442901741 | -0.758 | -0.652 | -1.44 |
| CMKLR2 (chemerin chemokine-like receptor 2) | SID442883428 | 4 (active) | 1.9 | 2.87 |
| SPMIP5 (sperm microtubule inner protein 5) | SID442884462 | -1.75 (active) | -2.79 | -1.95 |
| RPL12 (ribosomal protein L12) | SID442904275 | -1.75 | -1.74 | -1.18 |
| ZC3H12A (zinc finger CCCH-type containing 12A) | SID442892763 | 0.176 | -0.229 | 0.434 |
| SNX18 (sorting nexin 18) | SID442894132 | -0.0649 | -0.274 | 0.249 |
| LINC00336 (long independently transcribed non-coding RNA 336) | SID442900962 | 0.149 | -2.23 | -0.413 |
| COL1A2 (collagen type I alpha 2 chain) | SID442902189 | -0.371 | -1.39 | -1.32 |
| TMEM167A (transmembrane protein 167A) | SID442886646 | 1.47 | 0.261 | 1.57 |
| RAD51AP1 (RAD51 associated protein 1) | SID442894071 | -0.276 | 0.965 | -0.756 |
| LINC00656 (long independently transcribed non-coding RNA 656) | SID442889262 | 0.295 | 0.974 | 0.49 |
| LOC400567 (retired record) | SID442897015 | -0.752 | -0.00321 | -0.259 |
| LOC441847 (retired record) | SID442895816 | -0.587 | 0.343 | -0.383 |
| LARS1 (leucyl-tRNA synthetase 1) | SID442895561 | 0.461 | -0.242 | -0.763 |
| LOC401943 (retired record) | SID442891866 | 0.0408 | 0.147 | 0.522 |
| RNF122 (ring finger protein 122) | SID442894454 | 0.0552 | 0.0445 | -0.297 |
| CD47 (CD47 molecule) | SID442897663 | -0.733 | -0.124 | -0.374 |
| PQBP1 (polyglutamine binding protein 1) | SID442897946 | -0.578 | -0.577 | -0.173 |
| NECAB3 (N-terminal EF-hand calcium binding protein 3) | SID442887768 | 0.713 | 1.17 | 0.653 |
| TRIM36 (tripartite motif containing 36) | SID442899569 | -1.29 | -0.365 | -0.259 |
| LOC441997 (retired record) | SID442893440 | 0.175 | 0.0533 | -0.0771 |
| DEFB104A (defensin beta 104A) | SID442885513 | 2.28 | 0.462 | 1.71 |
| TLR4 (toll like receptor 4) | SID442895702 | 0.46 | -1.09 | 0.0341 |
| MYH10 (myosin heavy chain 10) | SID442893251 | 0.345 | -0.321 | 0.192 |
| PLA2G3 (phospholipase A2 group III) | SID442898679 | -0.878 | -0.025 | -0.674 |
| ZBTB5 (zinc finger and BTB domain containing 5) | SID442901249 | -2.21 | -1.24 | 0.834 |
| LOC392238 (retired record) | SID442894583 | -0.595 | 0.224 | 0.137 |
| SSTR4 (somatostatin receptor 4) | SID442886340 | 1.14 | 0.828 | 1.6 |
| WNT10A (Wnt family member 10A) | SID442898278 | -0.401 | -0.406 | -0.637 |

Part of the list above, reformatted:
gene	PubChem SID	robust z-score, replicate 1	robust z-score, replicate 2	robust z-score, replicate 3
LOC391764 (retired record)	SID442892530	0.173	0.161	0.133
PBOV1 (prostate and breast cancer overexpressed 1)	SID442889575	0.537	0.828	0.249
PRAMEF17 (PRAME family member 17)	SID442890832	0.403	0.45	0.24
ASB5 (ankyrin repeat and SOCS box containing 5)	SID442891330	0.431	-0.476	0.943
